This passage reports median seed-adjusted z-score results from PubChem BioAssay AID1347426 (Functional Genomics Laboratory (NCATS/FGL), 2020).

Out of some 31,000 sequences screened, about 1,400 (4.5%) were called active.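 Rule for the calls: active = median seed-adjusted z-score above 1 or below -1; inactive = the rest.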 The list shows a part of the results.

This assay can be described thus: Novel Modifiers of Survival Motor Neuron (SMN) Protein: Gene Identification via Genome-wide siRNA Screen.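 Note: luminescence tracks full-length SMN protein made from the SMN2 reporter.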 Conditions: HEK293T SMN2-luciferase reporter, siRNA knockdown, 72 h; actives lie on both sides. The essentials:
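Steps: spot 1 pmol siRNA, add Lipofectamine RNAiMax in serum-free DMEM, seed HEK293T SMN2–luciferase reporter cells; incubate 72 h at 37 °C; add ONE-Glo; normalize luminescence to control siRNA, log10, MAD. Candidates: |MAD| > 1.0.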
A general note: A reporter such as luciferase makes a cellular process visible.
For AGAUUUAUCUUGAAGCUGATT against ARL4D, the median seed-adjusted z-score is inactive: -0.523.

ACUCAGUGAAUGUGGAUUATT against NDUFA4: the median seed-adjusted z-score was inactive: 0.

GGCUCACGGAAUUUGAAGATT against BRF1: the median seed-adjusted z-score was inactive: -0.261.

GAAAAAUACCUAUUCUAGATT against F7: the median seed-adjusted z-score is inactive: 0.277.

In the case of GCAUUGAUCCAAAAGAAGATT against FOXN2, the median seed-adjusted z-score was inactive: 0.0947.

GGUCUAUGGUGUCCACUUUTT against HGD: the median seed-adjusted z-score is inactive: -0.0401.

In the case of AGAAACGAAUUCCAUUUUATT against KCTD14, the median seed-adjusted z-score was inactive: -0.166.

For CAGUAGCAGUGGAAUGGGATT against RBMX, the median seed-adjusted z-score is inactive: 0.0941.

For CCGUAUAUAUCAAUAUGAATT against ANKRD30A, the median seed-adjusted z-score is inactive: 0.259.

On to GCAUCCGAAAGAUUGGUUATT against GRIA1, for which the median seed-adjusted z-score was inactive: 0.927.

For the sequence CCUCAAAUUUUACUAAUCATT against ZNF708, the median seed-adjusted z-score was inactive: 0.0562.

GAUCCUACAGUGGAGAAUATT against RHEBL1: the median seed-adjusted z-score was inactive: -0.268.

For the sequence GAGUAAAUGUGGAGCAUAATT against AGPS, the median seed-adjusted z-score was inactive: 0.289.

As for CACUUCUCCCAGAUCGUUATT against FDPS, the median seed-adjusted z-score was inactive: 0.0115.

Consider GAAGACUUCUUUCUCUACATT against GABARAP, for which the median seed-adjusted z-score is inactive: 0.418.

For CGGAGUUCUUGGUCCAGAUTT against VPS4A, the median seed-adjusted z-score was inactive: 0.

As for GAUGAAUACCUGAAAUGUATT against ART3, the median seed-adjusted z-score is inactive: -0.434.

As to CUACCCAACCUGUAGCUAATT against UBE2J1, the median seed-adjusted z-score is active: -1.2.

With GCAGGAGCUGUAUUUGAUGTT against NUDT6, the median seed-adjusted z-score was inactive: 0.281.

For CCGCUGCGUUUAUAUGGAUTT against ZZEF1, the median seed-adjusted z-score was inactive: 0.167.

As for CAACCCAGCCCAUCCCAAATT against PDK2, the median seed-adjusted z-score was inactive: -0.481.

On to CUUUCGGUUUGAAGAAUAATT against ZC3H15, for which the median seed-adjusted z-score was inactive: 0.191.

Take CAACAUCUCAGAUAGUUUUTT against XRCC6BP1: the median seed-adjusted z-score was inactive: 0.128.

For the sequence GGAGAAUUCUGAGCACAGATT against PPYR1, the median seed-adjusted z-score was inactive: 0.589.

Turning to GGACUUUAUUCAUAUGAUUTT against HNMT, the median seed-adjusted z-score is inactive: 0.336.

Consider GGGUUACAGUAACUGCAAUTT against GABRR1, for which the median seed-adjusted z-score was inactive: 0.286.

GAGACUGACUACAAGAACATT against STK38: the median seed-adjusted z-score is inactive: -0.961.

In the case of GCAAAUACCUGAGAAGCGATT against BCMO1, the median seed-adjusted z-score was inactive: 0.53.

With CAUGCAGCCUUAAGCCUCATT against ILKAP, the median seed-adjusted z-score was inactive: 0.

CGGCCGAUGUAUGUACUGATT against CPA4: the median seed-adjusted z-score was inactive: -0.182.

Turning to GCCUCGCAGAUCAACCUCATT against ABCD1, the median seed-adjusted z-score was inactive: 0.

As for GACACGUUCUUUCUCAUCATT against CLCA4, the median seed-adjusted z-score was inactive: 0.186.

Turning to CUAAGAGAAUAUACGCUUATT against NRD1, the median seed-adjusted z-score is inactive: 0.0825.

For the sequence GCACUGUUCUGGGACUCCATT against MPZ, the median seed-adjusted z-score was inactive: 0.337.

As for GCACCUAUGUCACCUGGAUTT against AVPR2, the median seed-adjusted z-score is inactive: -0.262.

In the case of ACCUCUUACCCAACACCAATT against CLDN1, the median seed-adjusted z-score was inactive: 0.307.

In the case of GGCGAUCUAGUGUAUGUUATT against FOLH1, the median seed-adjusted z-score is inactive: 0.148.

Turning to GACCCGUACUUCAUGAAGATT against SF3A2, the median seed-adjusted z-score is active: -1.7.

Consider GCCUUUUCCAAGUUUGUAUTT against VN1R4, for which the median seed-adjusted z-score is inactive: -0.0601.

As for GUGUCUCCCUAAACUCAAUTT against ZMAT4, the median seed-adjusted z-score is inactive: -0.0468.

Turning to CGAACAAAACGGGCCUGGATT against FOXA2, the median seed-adjusted z-score was inactive: 0.883.

Consider GACUCGUUGUUGGUCUAAATT against MAP3K7, for which the median seed-adjusted z-score was inactive: -0.23.

Regarding GCAGUCAGUUCACCAGGAATT against PDCL, the median seed-adjusted z-score was inactive: -0.802.

Take CUUCCAAUGUUAAUGGACATT against VHLL: the median seed-adjusted z-score is inactive: -0.0852.

For the sequence ACAUCUCACGGAUCCUUAATT against PAX4, the median seed-adjusted z-score is inactive: 0.0811.

For the sequence GGAGUUUGCGCUGGUCAAATT against NDN, the median seed-adjusted z-score is inactive: -0.146.

On to GCCCAGAAGUUUAGGGAAATT against TAP1, for which the median seed-adjusted z-score is inactive: -0.506.

Consider CUCCUAAUCUUGUUCGAUATT against NDUFS1, for which the median seed-adjusted z-score was inactive: -0.217.

As for CCAGUGAUAUUAGAUCGGUTT against USP42, the median seed-adjusted z-score is inactive: -0.0125.

Turning to GGUUGCGGCUCAGAACAAATT against OAS3, the median seed-adjusted z-score was inactive: 0.147.

Regarding GUUUCGAAAUUUACAACAATT against NUP160, the median seed-adjusted z-score was inactive: -0.261.

For the sequence CGAUAUAAAGUCGGAAGAATT against DCLK1, the median seed-adjusted z-score is inactive: 0.193.

On to GCACCUAAAUCAUAAUCCATT against HSF5, for which the median seed-adjusted z-score was inactive: 0.369.

With GCAACUUCGUGAGAUUACATT against COLEC12, the median seed-adjusted z-score is active: -1.04.

Regarding GCAACGGUGCUUUCCCAGATT against CASKIN1, the median seed-adjusted z-score is inactive: 0.555.

Regarding GAAGCUUGCCUUGAAAUAUTT against DNAJC5, the median seed-adjusted z-score was inactive: -0.0844.

As for GGAAGUCCUUUUAUUACCATT against DTNA, the median seed-adjusted z-score was inactive: 0.

Take ACAACAGACCAGAGAAUGATT against SRF: the median seed-adjusted z-score was inactive: -0.393.

As to GGAGCCUACCCAAAACCCATT against LILRB2, the median seed-adjusted z-score was inactive: -0.911.

On to GGAUCACAGUUACAAGGCUTT against L3MBTL2, for which the median seed-adjusted z-score was inactive: -0.312.

On to CCAGGUAGACUUAAUGAAATT against ZNF202, for which the median seed-adjusted z-score was inactive: 0.534.

As to CCUACUACCUCAAACACCATT against SYVN1, the median seed-adjusted z-score is active: -1.41.

For the sequence CAGCGGUACUUCUUCCAGATT against ADCY6, the median seed-adjusted z-score is inactive: -0.0652.

As for CAACAUUCAUGGACGGGAATT against SLC2A7, the median seed-adjusted z-score was inactive: -0.0337.

On to GGGUGGAUCAUUCACAGAATT against NAT13, for which the median seed-adjusted z-score was inactive: 0.

Take GAAUCACCAUGAAUGUAAUTT against ZNF558: the median seed-adjusted z-score was inactive: -0.393.

As to GGCACAUCCUGCAAGCUCATT against ADAMTSL2, the median seed-adjusted z-score is inactive: 0.806.

Turning to GGAGCAUGGUGGUAUAAGATT against TNR, the median seed-adjusted z-score is inactive: 0.498.

With GCCUUAGGGACAACAGUGATT against GTF2IRD2, the median seed-adjusted z-score was inactive: 0.904.
